Experimental data: US20250182853A1
Results are given in words; binding and its absence hold for the method and conditions named. Some binding calls cover weakened binding; strength is not graded here.

Chains of the proteins cited; added tags and fusions are not shown. Residues count along the entry.
UniProt P17931: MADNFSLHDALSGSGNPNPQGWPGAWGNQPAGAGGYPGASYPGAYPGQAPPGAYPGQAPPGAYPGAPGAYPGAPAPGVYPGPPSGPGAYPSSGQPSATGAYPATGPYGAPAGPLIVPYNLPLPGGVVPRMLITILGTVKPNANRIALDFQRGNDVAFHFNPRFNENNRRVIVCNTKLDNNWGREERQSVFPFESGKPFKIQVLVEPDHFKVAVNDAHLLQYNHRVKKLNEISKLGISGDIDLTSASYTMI
UniProt P02701, residues 25-152: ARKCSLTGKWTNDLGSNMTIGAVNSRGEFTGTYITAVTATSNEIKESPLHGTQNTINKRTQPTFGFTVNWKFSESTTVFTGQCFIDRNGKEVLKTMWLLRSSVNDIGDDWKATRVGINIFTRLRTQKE

B1: 1E2 mutant (2u2f mutant from Cluster 1) (designed binder)
chain: AHKLFIGGLPVDYNDDQVKELLTSFGPLKAFNLVKDSATGLSKGYAFAEYVDINVTDQAIAGLNGNVCHLHTLLVQRASVGAKNADYKDDDDKLEHHHHHH
B2: 1H2 mutant (2u2f mutant from Cluster 1) (designed binder)
chain: AHKLFIGGLPVDYNDDQVKELLTSFGPLKAFNLVKDSATGLSKGYAFAEYVDINVTDQAIAGLNGSGSRIRALLVQRASVGAKNADYKDDDDKLEHHHHHH
B3: 3B5 mutant (2u2f mutant from Cluster 3) (designed binder)
chain: AHKLFIGGLPADGDDDQVKELLTSFGPLKAFNLVKDSATGLSKGYAFAEYVDINVTDQAIAGLNGFATSRFSLLVQRASVGAKNADYKDDDDKLEHHHHHH
B4: 4H5 mutant (2u2f mutant from Cluster 4) (designed binder)
chain: AHKLFIGGLPDYYGDDQVKELLTSFGPLKAFNLVKDSATGLSKGYAFAEYVDINVTDQAIAGLNGRFYGTATLLVQRASVGAKNADYKDDDDKLEHHHHHH
B5: C6 mutant (2u2f mutant) (designed binder)
chain: AHKLFIGGLPNGDGDDQVKELLTSFGPLKAFNLVKDSATGLSKGYAFAEYVDINVTDQAIAGLNGGYPTDSCLLVQRASVGAKNADYKDDDDKLEHHHHHH

Key:
Galectin-3 [1] = target: Galectin-3 (UniProt P17931); assay: ELISA, purified monomer on Galectin-3 immobilized via NeutrAvidin
NeutrAvidin = NeutrAvidin (UniProt P02701); assay: ELISA, purified monomer on wells with NeutrAvidin only
Galectin-3 [2] = target: Galectin-3 (UniProt P17931); assay: monoclonal phage ELISA, mutant displayed on M13 phage

Binder	binding (Galectin-3 [1])	binding (NeutrAvidin)	binding (Galectin-3 [2])
B1	binds		
B2	binds		
B3	binds		
B4	binds		
B5	binds	binds	binds
